Data on 31 molecules can be found in PubChem BioAssay AID463193 (University of Pittsburgh Molecular Library Screening Center, 2010).

The structures appear in SMILES notation. The list shows a part of the results.

The nature of this assay: GFP-LC3 puncta formation changes – imaging, high-content, MEF GFP-LC3, primary screen (AID 463193).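 Further: cell loss after 18 h compound exposure.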 The note with it: autophagy, measured here: cell loss, nuclei count, at 10 µM.
As for `Cc1cccc(C)c1OP(C)(=O)Nc1ccc(SC(F)(F)F)cc1` (stereo unspecified), the toxicity was -16.8%.

On to `CP(=O)(Oc1ccccc1)OC(c1ccccc1)C(F)(F)F` (stereo unspecified), for which the toxicity amounted to 2.44%. For `O=C(COc1ccccc1)OC1CN2CCC1CC2` (stereo unspecified), the toxicity was found to be 3.64%. As to `CP(=O)(NC(=O)Nc1ccccc1)Oc1ccccc1` (stereo unspecified), the toxicity is -10.4%. `Cc1cc(C)cc(OP(C)(=O)Nc2ccc(SC(F)(F)F)cc2)c1` (stereo unspecified): the toxicity was 17%.

Turning to `CP(=S)(Nn1cnnc1)Oc1ccccc1` (stereo unspecified), the toxicity is -9.37%. Next, `CP(=O)(Nc1ccccc1Br)Oc1ccccc1` (stereo unspecified): -41.7%; `O=P(Nc1ccccn1)(c1cccc2ccccc12)c1cccc2ccccc12`: -2.54%. Regarding `Cc1cc(SC(NC=O)C(Cl)(Cl)Cl)ncn1` (stereo unspecified), the toxicity was found to be 13.5%. With `COc1ccccc1OP(C)(=O)Nc1ccccc1` (stereo unspecified), the toxicity came to 8.8%.

For `Cc1cc(SC(NC(=O)c2ccccc2)C(Cl)(Cl)Cl)nc(C(C)C)n1` (stereo unspecified), the toxicity stood at 11.9%. As to `COc1ccccc1OP(C)(=O)Nc1ccc(C)cc1` (stereo unspecified), the toxicity is 11.8%.

Consider `Cc1ccc(NP(C)(=O)Oc2ccccc2)c(C)c1` (stereo unspecified), for which the toxicity stood at 2.2%. On to `CCOC(=O)c1ccc(NP(C)(=O)Oc2ccccc2)cc1` (stereo unspecified), for which the toxicity came out at 17%.

Turning to `ClCCSc1nnc(-c2cccnc2)o1`, the toxicity worked out at 8.9%. Under `Cc1cc(C)cc(OP(C)(N)=O)c1` (stereo unspecified) stands -2.65%; under `COc1ccccc1OP(C)(=O)Nc1cc(Cl)ccc1C` (stereo unspecified), 0.125%; under `CC(C)NC(=O)NP(=O)(Oc1ccccc1)Oc1ccccc1`, 4.43%. In the case of `CCN(CC)C(=S)SC(NC=O)C(Cl)(Cl)Cl` (stereo unspecified), the toxicity stood at 20.9%. Next, `COc1ccc(OP(C)(=O)Nc2cccc(F)c2)cc1` (stereo unspecified): -10.9%; `O=[N+]([O-])c1cc([N+](=O)[O-])c(-c2ccn[nH]2)s1`: -14.2%.

On to `O=[N+]([O-])c1ccc2c(c1)C=Nc1ccccc1O2`, for which the toxicity came to 60.2%.

Regarding `Cc1ccc2nc3c(c(C)c2c1)CC(C(Cl)Cl)S3` (stereo unspecified), the toxicity was -6.45%. As for `CC(C)(C)c1ccc(OP(C)(=O)Nc2ccc(SC(F)(F)F)cc2)cc1` (stereo unspecified), the toxicity came out at 5.48%. For the molecule `Cc1cccc(C)c1OP(C)(N)=O` (stereo unspecified), the toxicity was -4.99%. In the case of `COc1ccc(N/C(=N/P(=O)(N2CCOCC2)N2CCOCC2)N2CCOCC2)cc1`, the toxicity was -8.28%. For `O=C(OC1CN2CCC1CC2)C12CC3CC(CC(C3)C1)C2` (stereo unspecified), the toxicity was found to be 12.2%. `CCN(CC)CCCOC(=O)C(O)(c1ccccc1)c1ccccc1`: the toxicity stood at 23.6%.

Consider `Cc1cc(=O)[nH]c(N[N+](=O)[O-])n1`, for which the toxicity is -8.33%. As for `Cc1c2c(nc3ccccc13)SC(C(Cl)Cl)C2` (stereo unspecified), the toxicity was -6.98%. Under `COc1ccc2nc(NP(=O)(c3ccccc3)c3ccccc3)sc2c1` stands -6.41%.
